Experimental data as given in publication PMC11019930, “DnaK duplication and specialization in bacteria correlates with increased proteome complexity” (mSystems, 2024).
These are yes or no findings as the source states them, for the method shown. For some assays here: In cells and extracts the contact can be indirect. Some entries that bind do so weakly or less than the wild type. One block for each molecule: values may come before it.

Key:
[1] = target: MxDnaK2-nLuc (MxDnaK2 fused to LgBiT or SmBiT) (Myxococcus xanthus DK1622) (UniProt P95334); experiment: split reporter; split NanoBit luciferase oligomerization assay: MxDnaK-SmBiT (pET28A) and MxDnaK-LgBiT (pACYC Duet-1) co-expressed in E. coli BL21(DE3); empty vectors as negative control
[2] = target: His6-MxDnaK2 (Myxococcus xanthus DK1622) (UniProt P95334); experiment: SDS-PAGE of the purified protein (monomer and dimer bands); purified MxDnaK2 treated with 100 mM DTT; band compositions confirmed by LC-MS; both purified

binding [1]: binds
Molecule: MxDnaK2-nLuc (MxDnaK2 fused to LgBiT or SmBiT) (from UniProt P95334 1-607)

binding [2]: no binding (condition: with 100 mM DTT)
B1: His6-MxDnaK2 (natural protein, Myxococcus xanthus DK1622, UniProt P95334 1-607, looked up)
chain: MGKVIGIDLGTTNSCVAVMEGGEPVVIPNSEGSRTTPSMVGFTDSGERLVGQIAKRQAITNPENTVFAAKRLIGRKFDSPEGKKAIGVSPFKVASSPNGDAWVEIRGKGYSPPEVSAIVLMKMKQTAEDYLGEQVSEAVITVPAYFNDSQRQATKDAGRIAGLSVLRIINEPTAAALAYGLDKVQDGGTERIAVYDLGGGTFDISILELNAGVFEVKSTNGDTFLGGEDFDQRLIDYLAKRFAESNNGLDLRKDRMALQRLKEAAERAKHELSSAPETEVNLPFITADASGPKHLTETVDRATFEALVTDLIDRTIEPCRIALKDAGIPAQQINQVLLVGGMTRMPRVQQKVKEFFGREPHKGINPDEVVAVGAAIQGGVLKGEVKDVLLLDVTPLSLGVETAGGVFTKIIDKNTTIPCKKSQVFSTAVDNQPLVSVHVLQGEREMAADNKTLARFELVGIPPAPRGVPQIEVSFDIDANGIVHVSAKDLGTGKVQQVRVVSNSGLSEAEIQAMISDAQSHASDDKKKKELAELRNNADGLIYTTEKSLEEYASLLSEKDREEIKADLERLKEVLNTSDAAVLKESFQRLEGSAYRIADAIYTGQAS
notes: MxDnaK2 (MXAN_6671) of Myxococcus xanthus DK1622; the gene was amplified from genomic DNA and cloned into pET28a; His6-MxDnaK2 printed as 65.3 kDa; also called MxDnaK2, recombinant purified; source: E. coli BL21 (DE3), purified (Ni-NTA); not shown: His6, N-terminal, kept
